PubChem BioAssay AID1259254 – NCATS | 2017
The deposit covers about 59,000 reagents; this is a random part of them. In the full data, about 1,550 (2.6%) are marked active. 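G2 share is only a proxy for re-replication; each gene was hit by three separate siRNAs, and active genes were retested.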 Raw values are not corrected between plates. Entries without a mark were called inactive. The numbers tell different reagents against one gene apart. Not stated in the record: the amount of reagent.

Screen: 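Gene knock-downs that lead to re-replication, shown by excess G2 DNA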 (primary screen)
Cell system: human HCT116 colorectal cancer cells
Knock-down reagent: single siRNA against human genes
Timing: 3 days
Read-out: 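Imaged Hoechst DNA stain sorts each cell into a cycle phase by DNA amount; per plate, G2 fraction set to 0% for non-targeting and 100% for GMNN siRNA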
Scale: G2 robust z-score and G2 cells, % of GMNN control: higher = more G2 cells, more excess DNA replication; raw share of cells in G2: higher = larger share of cells with G2 DNA content
Active means: 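Active siRNAs have a G2 robust z of 5 or more median absolute deviations over the median, which in these data means about 38% or higher of GMNN control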

| gene symbol | reagent no. | G2 robust z-score | G2 cells, % of GMNN control | raw share of cells in G2 (%) |
| --- | --- | --- | --- | --- |
| EHD4 (EH domain containing 4) | 1 | -0.315 | 0.749 | 4.09 |
| EHD4 (EH domain containing 4) | 2 | -0.421 | 0.00479 | 5.96 |
| EHD4 (EH domain containing 4) | 3 | -0.662 | -1.69 | 3.62 |
| CLBA1 (clathrin binding box of aftiphilin containing 1) | 1 | -0.281 | 0.987 | 4.49 |
| CLBA1 (clathrin binding box of aftiphilin containing 1) | 2 | 1.67 | 14.7 | 7.71 |
| CLBA1 (clathrin binding box of aftiphilin containing 1) | 3 | -0.575 | -1.08 | 1.5 |
| ANTKMT (adenine nucleotide translocase lysine methyltransferase) | 1 | 0.451 | 6.14 | 7.36 |
| ANTKMT (adenine nucleotide translocase lysine methyltransferase) | 2 | -0.128 | 2.07 | 3.24 |
| ANTKMT (adenine nucleotide translocase lysine methyltransferase) | 3 | 0.0188 | 3.1 | 5.93 |
| ZSCAN21 (zinc finger and SCAN domain containing 21) | 1 | 0.9 | 9.3 | 9.53 |
| ZSCAN21 (zinc finger and SCAN domain containing 21) | 2 | -0.568 | -1.03 | 3.88 |
| ZSCAN21 (zinc finger and SCAN domain containing 21) | 3 | 1.01 | 10.1 | 7.79 |
| AEBP1 (AE binding protein 1) | 1 | 0.193 | 4.32 | 7.07 |
| AEBP1 (AE binding protein 1) | 2 | 0.496 | 6.46 | 7.19 |
| AEBP1 (AE binding protein 1) | 3 | -0.273 | 1.05 | 4.3 |
| PDE4B (phosphodiesterase 4B) | 1 | -0.987 | -3.98 | 2.3 |
| PDE4B (phosphodiesterase 4B) | 2 | 0.766 | 8.35 | 6.82 |
| PDE4B (phosphodiesterase 4B) | 3 | -0.925 | -3.54 | 3.64 |
| STOML1 (stomatin like 1) | 1 | -0.688 | -1.88 | 4.48 |
| STOML1 (stomatin like 1) | 2 | -0.231 | 1.34 | 4.5 |
| STOML1 (stomatin like 1) | 3 | -0.881 | -3.23 | 2.23 |

6 entries from above, set out differently.
gene symbol	reagent no.	G2 robust z-score	G2 cells, % of GMNN control	raw share of cells in G2 (%)
EHD4 (EH domain containing 4)	3	-0.662	-1.69	3.62
CLBA1 (clathrin binding box of aftiphilin containing 1)	1	-0.281	0.987	4.49
CLBA1 (clathrin binding box of aftiphilin containing 1)	2	1.67	14.7	7.71
CLBA1 (clathrin binding box of aftiphilin containing 1)	3	-0.575	-1.08	1.5
ANTKMT (adenine nucleotide translocase lysine methyltransferase)	1	0.451	6.14	7.36
ANTKMT (adenine nucleotide translocase lysine methyltransferase)	2	-0.128	2.07	3.24

The listing continues:
| gene symbol | reagent no. | G2 robust z-score | G2 cells, % of GMNN control | raw share of cells in G2 (%) |
| --- | --- | --- | --- | --- |
| IL15 (interleukin 15) | 1 | 0.231 | 4.59 | 6.71 |
| IL15 (interleukin 15) | 2 | 0.0968 | 3.65 | 7.07 |
| IL15 (interleukin 15) | 3 | -0.875 | -3.19 | 3.03 |
| CNGA2 (cyclic nucleotide gated channel subunit alpha 2) | 1 | 0.764 | 8.35 | 8.33 |
| CNGA2 (cyclic nucleotide gated channel subunit alpha 2) | 2 | -0.198 | 1.57 | 5.31 |
| CNGA2 (cyclic nucleotide gated channel subunit alpha 2) | 3 | -0.34 | 0.576 | 4.6 |
| TNRC6B (trinucleotide repeat containing adaptor 6B) | 1 | -0.00939 | 2.9 | 6.12 |
| TNRC6B (trinucleotide repeat containing adaptor 6B) | 2 | -0.205 | 1.52 | 4.76 |
| TNRC6B (trinucleotide repeat containing adaptor 6B) | 3 | 0.647 | 7.52 | 5.99 |
| FPGT (fucose-1-phosphate guanylyltransferase) | 1 | 0.398 | 5.77 | 6.77 |
| FPGT (fucose-1-phosphate guanylyltransferase) | 2 | 1.85 | 16 | 10.9 |
| FPGT (fucose-1-phosphate guanylyltransferase) | 3 | 0.18 | 4.23 | 6.46 |
| C6orf118 (chromosome 6 open reading frame 118) | 1 | 1.67 | 14.7 | 7.42 |
| C6orf118 (chromosome 6 open reading frame 118) | 2 | 0.472 | 6.29 | 5.86 |
| C6orf118 (chromosome 6 open reading frame 118) | 3 | -0.39 | 0.227 | 3.03 |
| USP22 (ubiquitin specific peptidase 22) | 1 | 4.38 | 33.8 | 17.3 |
| USP22 (ubiquitin specific peptidase 22) | 2 | 2.48 | 20.4 | 12.1 |
| USP22 (ubiquitin specific peptidase 22) | 3 | -0.168 | 1.79 | 4.58 |
| FFAR2 (free fatty acid receptor 2) | 1 | -0.676 | -1.79 | 3.89 |
| FFAR2 (free fatty acid receptor 2) | 2 | 1.84 | 15.9 | 8.14 |
| FFAR2 (free fatty acid receptor 2) | 3 | 1.28 | 12 | 10.1 |
| OR2H1 (olfactory receptor family 2 subfamily H member 1) | 1 | -0.947 | -3.7 | 3.02 |
| OR2H1 (olfactory receptor family 2 subfamily H member 1) | 2 | 1.15 | 11.1 | 8.74 |
| OR2H1 (olfactory receptor family 2 subfamily H member 1) | 3 | 0.647 | 7.52 | 5.93 |
| CYP2E1 (cytochrome P450 family 2 subfamily E member 1) | 1 | 0.0947 | 3.63 | 5.35 |
| CYP2E1 (cytochrome P450 family 2 subfamily E member 1) | 2 | 4.88 | 37.3 | 18.3 |
| CYP2E1 (cytochrome P450 family 2 subfamily E member 1) | 3 | -0.273 | 1.05 | 5.38 |
